Experimental data published in PMC10721602.
No constants are given. Whether binding was seen depends on the method and setting. Binding seen in cells or lysates may run through a third protein. These calls come from enrichment with a bait or labelling near it, and not all partners need be listed.

Chains of the proteins cited; added tags and fusions are not shown. Residues count along the entry.
UniProt P78536, residues 215-824: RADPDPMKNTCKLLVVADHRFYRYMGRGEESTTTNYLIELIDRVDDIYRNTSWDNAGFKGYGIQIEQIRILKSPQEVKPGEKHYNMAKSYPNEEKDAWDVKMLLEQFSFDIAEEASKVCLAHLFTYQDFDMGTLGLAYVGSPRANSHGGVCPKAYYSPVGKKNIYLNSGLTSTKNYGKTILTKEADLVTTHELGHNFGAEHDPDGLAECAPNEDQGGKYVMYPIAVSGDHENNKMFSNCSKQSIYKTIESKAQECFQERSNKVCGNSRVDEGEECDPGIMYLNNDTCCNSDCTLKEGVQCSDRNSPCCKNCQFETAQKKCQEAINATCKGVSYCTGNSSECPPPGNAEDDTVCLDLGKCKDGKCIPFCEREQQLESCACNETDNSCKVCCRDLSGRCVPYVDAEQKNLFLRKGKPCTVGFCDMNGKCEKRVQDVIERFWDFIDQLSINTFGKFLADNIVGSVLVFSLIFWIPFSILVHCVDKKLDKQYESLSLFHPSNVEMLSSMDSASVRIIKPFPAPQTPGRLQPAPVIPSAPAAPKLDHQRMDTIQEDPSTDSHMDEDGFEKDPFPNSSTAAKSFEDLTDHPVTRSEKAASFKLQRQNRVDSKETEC
UniProt P16070, residues 21-742: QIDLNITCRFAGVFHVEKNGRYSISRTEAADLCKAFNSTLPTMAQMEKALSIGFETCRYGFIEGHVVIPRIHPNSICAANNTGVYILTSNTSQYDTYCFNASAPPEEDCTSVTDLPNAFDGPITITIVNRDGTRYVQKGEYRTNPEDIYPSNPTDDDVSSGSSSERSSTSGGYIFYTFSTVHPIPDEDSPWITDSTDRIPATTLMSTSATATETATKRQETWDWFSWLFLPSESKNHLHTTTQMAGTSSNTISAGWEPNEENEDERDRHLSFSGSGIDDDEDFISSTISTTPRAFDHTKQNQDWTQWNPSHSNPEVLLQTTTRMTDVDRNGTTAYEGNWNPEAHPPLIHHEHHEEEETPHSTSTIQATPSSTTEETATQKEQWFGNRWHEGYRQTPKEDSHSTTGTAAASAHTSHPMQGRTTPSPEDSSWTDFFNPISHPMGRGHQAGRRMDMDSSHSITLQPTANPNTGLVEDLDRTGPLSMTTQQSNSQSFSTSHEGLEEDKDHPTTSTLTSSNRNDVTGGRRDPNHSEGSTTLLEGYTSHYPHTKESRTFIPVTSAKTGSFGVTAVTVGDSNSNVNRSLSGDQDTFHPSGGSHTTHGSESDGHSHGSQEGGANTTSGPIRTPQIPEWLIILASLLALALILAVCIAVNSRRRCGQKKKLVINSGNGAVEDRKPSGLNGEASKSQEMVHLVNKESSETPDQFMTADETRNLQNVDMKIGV

molecular target: endogenous EGFR of A431 and NCI-H226 cells (human (endogenous in A431 and NCI-H226)) (UniProt P00533); experiment: proximity labelling; EGFR-FabID on adherent A431 cells (endogenous EGFR), 37 °C, 2 h; DMSO, EGF, EGF+gefitinib or gefitinib alone; biotinylated peptides enriched with Tamavidin 2-REV, LC-MS/MS; AGIA-FabID as control

Question: How did the binding turn out when “EEF1A1 (elongation factor 1-alpha 1) (from UniProt P68104 1-462)” was run?
Answer: binds

Question: “ADAM17 (disintegrin and metalloproteinase domain-containing protein 17), endogenous (from UniProt P78536 215-824) (enzyme)” was tested. Which binding did it give?
Answer: binds

Question: With “CD44 (cell differentiation 44) (from UniProt P16070 21-742)” as the substance, how does the binding read?
Answer: binds

molecular target: endogenous EGFR of A431 and NCI-H226 cells (human (endogenous in A431 and NCI-H226)) (UniProt P00533); experiment: proximity labelling; EGFR-FabID on adherent NCI-H226 cells (endogenous EGFR), 37 °C, 3 h; DMSO, EGF, EGF+gefitinib or gefitinib alone; biotinylated peptides enriched with Tamavidin 2-REV, LC-MS/MS; AGIA-FabID as control

Question: How did the binding turn out when “EEF1A1 (elongation factor 1-alpha 1) (from UniProt P68104 1-462)” was run?
Answer: binds

Question: With L1CAM (from UniProt P32004 20-1257) as the substance, how does the binding read?
Answer: binds

Question: For “ADAM17 (disintegrin and metalloproteinase domain-containing protein 17), endogenous (from UniProt P78536 215-824) (enzyme)”, which binding is on record?
Answer: binds

Question: With “CD44 (cell differentiation 44) (from UniProt P16070 21-742)” as the substance, how does the binding read?
Answer: binds

molecular target: human EGFR overexpressed in Expi293F cells (pcDNA3.1-EGFR) (human) (UniProt P00533); experiment: proximity labelling; EGFR-FabID (AirID-Fab of EMab-134) with ATP, MgCl2 and d-biotin on suspended Expi293F cells transiently overexpressing EGFR, 37 °C, 2 h; biotinylated peptides enriched with Tamavidin 2-REV, LC-MS/MS; AGIA-FabID as control (ratio >1, P < 0.05); extracellular sites only

Question: “EEF1A1 (elongation factor 1-alpha 1) (from UniProt P68104 1-462)” was tested. Which binding did it give?
Answer: binds

Question: “CD44 (cell differentiation 44) (from UniProt P16070 21-742)” was tested. Which binding did it give?
Answer: binds
